Assay results: article PMC9674853
Results are given in words; binding and its absence hold for the method and conditions named. Some results given as binding are weak or reduced against the parent protein; the word gives no strength.

Amino acid sequences for entries named in this document (tags omitted). Residues count along the entry.
UniProt P84095, residues 1-179: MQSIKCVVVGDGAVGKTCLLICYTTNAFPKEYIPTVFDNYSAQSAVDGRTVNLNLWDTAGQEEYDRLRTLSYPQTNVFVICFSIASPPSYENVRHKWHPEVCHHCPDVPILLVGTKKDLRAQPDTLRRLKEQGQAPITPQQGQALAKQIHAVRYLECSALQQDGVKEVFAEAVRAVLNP

Molecular target: human RHOG (residues 1-179) (human) (UniProt P84095)
Experiment: NMR titration; ELMO2 (WT or L43A) titrated into 15N-labeled GMPPNP-loaded RHOG; 1H/15N HSQC, 600 MHz, 25 °C; 20 mM Tris pH 7.5, 100 mM NaCl, 5 mM MgCl2, 1 mM DTT, 10% D2O; both purified

B1: murine ELMO2 full-length, wild type (protein, UniProt Q8BHL5 1-732)
chain: MPPPSDIVKVAIEWPGANAQLLEIDQKRPLASIIKEVCDGWSLPNPEYYTLRYADGPQLYVTEQTRNDIKNGTILQLAVSPSRAARQLMERTQSSSMETRLDAMKELAKLSADVTFATEFINMDGIIVLTRLVESGTKLLSHYSEMLAFTLTAFLELMDHGIVSWDMVSVTFIKQIAGYVSQPMVDVSILQRSLAILESMVLNSQSLYQKIAEEITVGQLISHLQVSNQEIQTYAIALINALFLKAPEDKRQDKHLNPLDLPVTDMANAFAQKHLRSIILNHVIRGNRPIKTEMAHQLYVLQVLTFNLLEERMMTKMDPNDQAQRDIIFELRRIAFDAESDPSNVPGSGTEKRKAMYTKDYKMLGFTNHINPALDFTQTPPGMLALDNMLYLAKVHQDTYIRIVLENSSREDKHECPFGRSAIELTKMLCEILQVGELPNEGRNDYHPMFFTHDRAFEELFGICIQLLNKTWKEMRATAEDFNKVMQVVREQITRALPSKPNSLDQFKSKLRSLSYSEILRLRQSERMSQDDFQSPPIVELREKIQPEILELIKQQRLNRLCEGSSFRKIGNRRRQERFWHCRLALNHKVLHYGDLDDNPQGEVTFESLQEKIPVADIKAIVTGKDCPHMKEKSALKQNKEVLELAFSILYDPDETLNFIAPNKYEYCIWIDGLSALLGKDMSSELTKSDLDTLLSMEMKLRLLDLENIQIPEAPPPVPKEPSSYDFVYHYG
binding: binds
